In article PMC7819943, “Rice protein-binding microarrays: a tool to detect cis-acting elements near promoter regions in rice” one finds binding signal data, which are given here for 54 sequences.

The chains behind the UniProt entries cited, without tags or fusion partners.
UniProt Q0JBA9, entry or part of it: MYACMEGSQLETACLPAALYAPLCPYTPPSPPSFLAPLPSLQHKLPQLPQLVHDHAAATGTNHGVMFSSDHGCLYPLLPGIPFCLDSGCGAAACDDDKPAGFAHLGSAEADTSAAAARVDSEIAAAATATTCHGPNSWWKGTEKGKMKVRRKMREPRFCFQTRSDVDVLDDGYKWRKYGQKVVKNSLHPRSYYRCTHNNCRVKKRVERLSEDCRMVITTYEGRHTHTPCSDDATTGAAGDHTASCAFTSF

The list shows a part of the results.

For the assay, the target named is OsWRKY34 (Oryza sativa, UniProt Q0JBA9 1-250). Put plainly: protein-binding microarray (RPBM); PBS, 2% BSA, 51.3 ng/ul salmon testes DNA, 50 uM zinc acetate, 200 nM TF, 25 C, 1 h; high values mean tight binding. As to conditions: protein: recombinant; tags: N-terminal polyhistidine and DsRed monomer fusion (pET32a); label: CyDye5-dUTP incorporated in the synthesized complementary strand; 3' TTTTT single-stranded linker to array surface; dsDNA, one strand shown. In a few lines:
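Per-feature fluorescence intensity (arbitrary units), read on an Axon 4000B scanner, is the binding signal. Transcription factors carrying an N-terminal polyhistidine tag and DsRed fusion were expressed in E. coli BL21-CodonPlus and purified on Ni–NTA. A custom Agilent array, made double-stranded by primer extension with Cy5-dUTP and blocked with 2% BSA, was incubated with 200 nM protein in PBS, 2% BSA, salmon testes DNA and 50 µM zinc acetate at 25 °C for 1 h and then washed.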
As for “GGGATTTTGAGGGAGGGCTGAATGCGATGTACTGAAGGGTCGGAGTCACCTAGTGCAG”, the binding signal is 13300 fluorescence intensity (a.u.).

As to “CGCCTCGACCCTGCGCCGGCTCCGGCCCCGCCGAAGTCCACGGAGTCACCTAGTGCAG”, the binding signal was 10400 fluorescence intensity (a.u.). Next, “CTTTCCTTTCTTTGTTTTTTATCTTTGTTTTCTTTCTTCCCGGAGTCACCTAGTGCAG”: 11800 fluorescence intensity (a.u.). The value for “CCCTGCGCAAGTACTTCCGTCACCAACGCTTGGCGCCACCCGGAGTCACCTAGTGCAG” was 9380 fluorescence intensity (a.u.); that for “TAATTGATCCTCGTTGTTAATACTGATAGCCTTGATGTCACGGAGTCACCTAGTGCAG” was 8780 fluorescence intensity (a.u.).

Consider “ATTTATCAATACCTATCGGAAGATCGGGACCTAACATCCTCGGAGTCACCTAGTGCAG”, for which the binding signal is 8290 fluorescence intensity (a.u.).

As to “CAACGCCCTATTTTTTTTGGATCGGATAATTTTGGTTTTTCGGAGTCACCTAGTGCAG”, the binding signal is 8460 fluorescence intensity (a.u.). Next, “CACCTCCGCCCTCTCTCCGGCCGTCGCCGCCGCTCTCGTGCGGAGTCACCTAGTGCAG”: 9050 fluorescence intensity (a.u.); “CCTCTCTGCCTCTTCTCTCTCTCTCCCTCGCTTAAACCCTCGGAGTCACCTAGTGCAG”: 9580 fluorescence intensity (a.u.); “TCCTAGAGTCCTGGTCCATCTTTCTTGGCTTCTTGATATGCGGAGTCACCTAGTGCAG”: 8170 fluorescence intensity (a.u.). Next, “TCCCCATACCTTTGATCGAATCATCTCCTTGAAACGCAAACGGAGTCACCTAGTGCAG”: 8840 fluorescence intensity (a.u.); “GGAGGCAGAGGGTTGGGGACTAAAGGGAGGAGGGGAGATGCGGAGTCACCTAGTGCAG”: 10400 fluorescence intensity (a.u.). Next, “TGCTATTTTAATTTTATTATTGTTATATACGTTTTAGTTACGGAGTCACCTAGTGCAG”: 9380 fluorescence intensity (a.u.). “TGAACTACTGCTGCTGCTACTCCATGTCATTTTCTCCCATCGGAGTCACCTAGTGCAG”: the binding signal is 9050 fluorescence intensity (a.u.). Next, “ACAAGCCTGAAACAATAGTCTTTACATGCCTTTATTTGTCCGGAGTCACCTAGTGCAG”: 10700 fluorescence intensity (a.u.); “TAGTTTTCTCATGTTCATCAATTTAAATACCTAACAATACCGGAGTCACCTAGTGCAG”: 8180 fluorescence intensity (a.u.); “CATCTTCTCCAATTGATGTGGCTCTCTCATTTGACCATTTCGGAGTCACCTAGTGCAG”: 10400 fluorescence intensity (a.u.). Next, “CCGGTTTTGATTGGCTTCTTCGCAACCATAGTTGAATATCCGGAGTCACCTAGTGCAG”: 8450 fluorescence intensity (a.u.). For “CAGATGTTCTTGGTCTTCTTAATATATGTCACCGTGACTCCGGAGTCACCTAGTGCAG”, the binding signal was 8620 fluorescence intensity (a.u.).

Regarding “TCTCACACTTCGTCGCCGGCTGCTTCCGCTCTGAATCGCCCGGAGTCACCTAGTGCAG”, the binding signal was 8040 fluorescence intensity (a.u.).

With “TTGTTATGATGATTGGTTAGTTCTTGATTCCTTGATTATTCGGAGTCACCTAGTGCAG”, the binding signal was 9610 fluorescence intensity (a.u.). With “TCGCTGTGAGTGGAGGAGGAGGAGGAAGGGGAGGAGGATGCGGAGTCACCTAGTGCAG”, the binding signal was 8630 fluorescence intensity (a.u.). For “TCATATTTTTTTCTCTTGGTTTTTAATATGTACGTATACACGGAGTCACCTAGTGCAG”, the binding signal was 9930 fluorescence intensity (a.u.). With “ATCTTACTGCCAGCTTCACCGTTCACCGCGTTCAACCGCACGGAGTCACCTAGTGCAG”, the binding signal was 8790 fluorescence intensity (a.u.). The value for “TTTGCCACGCGTCGACCGCGCCGTGTCTTTGCCGCGGATGCGGAGTCACCTAGTGCAG” was 10200 fluorescence intensity (a.u.). Consider “GTCCCATGCTGCGACCGCACCCAAAACTAGTAGCCGTCTCCGGAGTCACCTAGTGCAG”, for which the binding signal is 9350 fluorescence intensity (a.u.). Next, “CAGGGGCGGCGGCGTCTTCATCGTCAATTATGGGGTAATGCGGAGTCACCTAGTGCAG”: 8930 fluorescence intensity (a.u.); “ATTCTTTTGTATATAGTTCTTGATACAATTCCGTATTTTTCGGAGTCACCTAGTGCAG”: 8720 fluorescence intensity (a.u.); “ACAAAAGGTACAATCAGTGCTATCCTGTACGCGGAACAATCGGAGTCACCTAGTGCAG”: 8110 fluorescence intensity (a.u.). The value for “ATCAATGTTTGCGGCCAATCCCGTCTCCTTTTCGCTTATTCGGAGTCACCTAGTGCAG” was 11000 fluorescence intensity (a.u.); that for “ACACACCATCGTACACCATATTTTACTGGCTATCATTTACCGGAGTCACCTAGTGCAG” was 9030 fluorescence intensity (a.u.).

Consider “CGCCACCACTGCTGCCATCGTCAACATCCTATATGATTTTCGGAGTCACCTAGTGCAG”, for which the binding signal is 13400 fluorescence intensity (a.u.). For the sequence “CGAGATACCGTACTTGTTCTACTACCTATGGATGATTTTCCGGAGTCACCTAGTGCAG”, the binding signal is 9000 fluorescence intensity (a.u.). “CCTGTGCGCTGGATCATCCGTCGGTCGCCGCTATCCTCTCCGGAGTCACCTAGTGCAG”: the binding signal is 8740 fluorescence intensity (a.u.). In the case of “GCTTTTTCTGTTGCAATCGTTGTTCTTGGGGTCCCAAATCCGGAGTCACCTAGTGCAG”, the binding signal is 9520 fluorescence intensity (a.u.). On to “CTGACACGCCCAGCCGTCCCGTTCCATCGCCGCGCTGCTCCGGAGTCACCTAGTGCAG”, for which the binding signal was 10700 fluorescence intensity (a.u.). The value for “GCCTATGTTCTATTTCTGTTTCAGTTCAGACAAAATCAGACGGAGTCACCTAGTGCAG” was 8260 fluorescence intensity (a.u.); that for “CAAGTCCATGTCATCCTCGTTCCTGTGGTGCCCCATGTCGCGGAGTCACCTAGTGCAG” was 8200 fluorescence intensity (a.u.). As to “GTCGTCCGCTAGTCCCTCTATAGAATCCGGTCTCCGATTCCGGAGTCACCTAGTGCAG”, the binding signal was 13800 fluorescence intensity (a.u.).

“AGTTACATTGAAAGTCACCGCACACATTCATTCCATAAAGCGGAGTCACCTAGTGCAG”: the binding signal was 8750 fluorescence intensity (a.u.). As for “GGTTACTGTCCAACCGCCGCTACTGCCACTTTTCGCGGGACGGAGTCACCTAGTGCAG”, the binding signal was 10200 fluorescence intensity (a.u.).

Turning to “CTCTTTTCCCACTGTGTTGCTTGCCAGTTGCCATTGCAATCGGAGTCACCTAGTGCAG”, the binding signal is 9270 fluorescence intensity (a.u.). As to “ATAAATGACGCCGTTGATTTTTTCTCACATGTTTGACCATCGGAGTCACCTAGTGCAG”, the binding signal is 10500 fluorescence intensity (a.u.). The value for “GGCGGGGCACGGCGGCGGCGGCGCGTGGGAGTACCTCTGCCGGAGTCACCTAGTGCAG” was 8060 fluorescence intensity (a.u.). The value for “ACACCATCAATGTGGCACACCCTAAATTCTCTCCATGCCTCGGAGTCACCTAGTGCAG” was 8110 fluorescence intensity (a.u.); that for “GCCGCGCCCCGATTTGAACCCTCGCCGCCTCGCCTCGCCTCGGAGTCACCTAGTGCAG” was 10200 fluorescence intensity (a.u.). Next, “CCATGGCTCTTCCGCTCGATCGCTCCGGCTCGCCATGACTCGGAGTCACCTAGTGCAG”: 9060 fluorescence intensity (a.u.); “GAGGAATAATTGTCGCTCGATTGCTTGCTTGGGTTGGGTTCGGAGTCACCTAGTGCAG”: 12000 fluorescence intensity (a.u.); “GGTTTCCTCATATGCCCTTGAAAATTTGCTATTCCTCTGTCGGAGTCACCTAGTGCAG”: 22700 fluorescence intensity (a.u.). In the case of “CATATTCCAGACTTCCAGTCATGTGTCCAGTCCAATTGACCGGAGTCACCTAGTGCAG”, the binding signal was 8820 fluorescence intensity (a.u.). The value for “CTGGATACTTGTGTTTATACTTCATCGACTATCTACATGGCGGAGTCACCTAGTGCAG” was 8500 fluorescence intensity (a.u.). Next, “CTTGTCACTATCCATGTACCTCTCTCATTTGGTACATAAACGGAGTCACCTAGTGCAG”: 8540 fluorescence intensity (a.u.); “AAGAACAAGTCTCCGTGTTCGTGTTCGTTGTATGTTTTCCCGGAGTCACCTAGTGCAG”: 9920 fluorescence intensity (a.u.); “CTCTCTTGGTATTTCACTCTATCTCTTCGTGTGGAGAAGACGGAGTCACCTAGTGCAG”: 8980 fluorescence intensity (a.u.).
